# From article PMC11578312, “Proximity‐Unlocked Luminescence by Sequential Enzymatic Reactions from Antibody and Antibody/Aptamer (PULSERAA): A Platform for Detection and Visualization of Virus‐Containing Spots”
# Molecular target: T1, myoglobin (Mb) (UniProt P02144)
# T1 sequence (looked up, limits assumed): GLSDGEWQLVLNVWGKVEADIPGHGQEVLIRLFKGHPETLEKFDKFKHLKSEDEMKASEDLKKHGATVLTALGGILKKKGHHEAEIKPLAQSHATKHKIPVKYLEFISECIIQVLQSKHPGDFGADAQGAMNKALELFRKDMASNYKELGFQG
# Experiment: dot blot
# Settings: dot blot: 10 mM sodium phosphate pH 7.0, 10 mM KCl, 0.05% Tween-20, 100 nM oligonucleotide, 25 C, 1 h (block 2% BSA), commercial protein, label: 3'-biotinylated oligonucleotide mixed in, folded or branched DNA
Sequence,binding result (better binder than 2R-01–PEA3-01),binding result (relative to PEA3-01–2R-01)
GGGCGGGTTGGGCTGGGTTTTTGGGGTTATTTTGGGTGTGGTGGGTGGGGGTT [PEA3-01–2R-01],binds,
TTGGGGTTATTTTGGGTGTGGTGGGTGGGGGTTTTTGGGCGGGTTGGGCTGGG [2R-01–PEA3-01],,binds more weakly

# Construct, isoform or probe ends are uncertain for at least one entry. A weaker result is weaker than the reference pair of the same experiment. At least one verdict rests on a figure or table, not on a statement of the authors. Where a protein sequence is shown, tags need not be part of it.
